Results taken from article PMC9733060, “Novel alendronate-CGS21680 conjugate reduces bone resorption and induces new bone formation in post-menopausal osteoporosis and inflammatory osteolysis mouse models” (Arthritis Research & Therapy, 2022).
Like-named read-outs stand apart in the source and are kept apart here. Structures were worked out from names or drawings and are uncertain. Marks after values point to notes of the source that are not given here.

Sequences of proteins named here, by UniProt entry; tags and fusion partners are left off. A change or cut given only in a name is not applied to a line headed by its entry.
UniProt P29275, whole entry: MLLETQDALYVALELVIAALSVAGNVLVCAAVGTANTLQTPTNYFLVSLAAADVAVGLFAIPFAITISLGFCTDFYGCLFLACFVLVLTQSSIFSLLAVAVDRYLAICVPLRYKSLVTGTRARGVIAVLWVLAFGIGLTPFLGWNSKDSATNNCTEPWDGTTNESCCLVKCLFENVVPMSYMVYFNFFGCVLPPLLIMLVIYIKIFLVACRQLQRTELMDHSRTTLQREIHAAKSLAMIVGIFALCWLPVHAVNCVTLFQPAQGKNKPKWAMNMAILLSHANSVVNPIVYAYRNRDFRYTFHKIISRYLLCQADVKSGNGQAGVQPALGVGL

What was measured:
[1] = tested on: ovariectomy-induced osteoporotic mice; conditions: tested form: triethylammonium salt
[2] = target: human A2A adenosine receptor (Homo sapiens, UniProt P29274); test: cyclic AMP functional assay, A2A adenosine receptor in HEK293 cells
[3] = tested on: UHMWPE-induced osteolytic mice (WT); test: UHMWPE wear particle-induced osteolysis (OL) in WT mice calvaria; assay type: in vivo, mouse; conditions: tested form: triethylammonium salt
[4] = tested on: human primary osteoclasts; test: human primary osteoclast differentiation (RANKL, TRAP staining); conditions: tested form: triethylammonium salt; for inhibition of osteoclast differentiation: versus AlenP and alendronate
[5] = target: hA2AR (Homo sapiens, UniProt P29274); conditions: read-out: Ki, A2A adenosine receptor affinity; radioligand [3H]CGS21680 10 nM, HEK293 membranes; tested form: triethylammonium salt
[6] = target: human A2B adenosine receptor (Homo sapiens, UniProt P29275); test: cyclic AMP functional assay, A2B adenosine receptor in HEK293 cells; conditions: 10 μM; compared to full agonist NECA (10 μM); tested form: triethylammonium salt
[7] = tested on: human primary osteoblasts; test: human primary osteoblast mineralization (Alizarin Red); conditions: 1 μM, 10 days, osteogenic medium; tested form: triethylammonium salt
[8] = L5 vertebra trabecular bone, μCT, mean ± SEM, 10 mg/kg weekly IP, 9 weeks
[9] = femur cortical bone, μCT, mean ± SEM, 10 mg/kg weekly IP, 9 weeks
[10] = femur trabecular bone, μCT, mean ± SEM, 10 mg/kg weekly IP, 9 weeks

## CCNC(=O)[C@H]1O[C@@H](n2cnc3c(N)nc(NCCc4ccc(CCC(=O)NCCOCCOCCOCCOCCOCCOCCC(=O)NCCCC(O)(P(=O)(O)O)P(=O)(O)O)cc4)nc32)[C@H](O)[C@@H]1O
[1]; [8]
  BS/BV: 68.78 ± 3.48* 1/mm
  BV/TV: 16.11 ± 1.63 & %
  Tb.N: 3.37 ± 0.32 & 1/mm
  Tb.Pf: 9.71 ± 1.44 & 1/mm
  Tb.Sp: 0.254 ± 0.019 # & μm
  Tb.Th: 0.048 ± 0.002 μm
[1]; OVX mice femur, compared to AlenP or saline
  number of alkaline phosphatase positive osteoblasts in bone: increased number of alkaline phosphatase positive osteoblasts
[1]; OVX mice femur, compared to saline-treated mice
  TRAP+ osteoclasts in bone: nearly completely eliminated TRAP+ osteoclasts
[1]; OVX mice, 10 mg/kg weekly IP, after 6 weeks of treatment
  total body BMD / OP bone loss by DXA scan: significantly reversed OP bone loss
[1]; OVX mice, 10 mg/kg weekly IP
  new bone formation in femur (fluorochrome labeling): stimulated an increase in new bone formation
[1]; OVX mice, 9 weeks of treatment, versus saline or AlenP, p < 0.05
  BMD in femurs and L5 vertebrae by μCT: significantly higher BMD
[1]; [9]
  BV: 0.470 ± 0.010 * mm^3
  BV/TV: 46.26 ± 1.10
  TV: 1.017 ± 0.032 mm^3
[1]; [10]
  BS/BV: 100.03 ± 1.07 & 1/mm
  BV/TV: 2.170 ± 0.347 # & %
  Tb.N: 0.544 ± 0.099 # & 1/mm
  Tb.Pf: 36.37 ± 2.20 1/mm
  Tb.Sp: 0.443 ± 0.023 & μm
  Tb.Th: 0.0401 ± 0.0014 & μm
[1]; mice, acute administration
  A2A agonist toxicities (hypotension, locomotor depression, core body temperature depression): did not observe these toxicities
[2]; read-out: EC50, A2A adenosine receptor activation (cyclic AMP), 1 μM CGS21680 as control, tested form: triethylammonium salt
  EC50: 9 nM
[2]; tested form: triethylammonium salt
  agonist efficacy at the A2A adenosine receptor (cyclic AMP): full agonist
[3]; OL mice, compared to healthy mice
  alkaline phosphatase positive osteoblasts in calvaria: more alkaline phosphatase positive osteoblasts
[3]; OL mice, compared to saline alone
  TRAP+ osteoclasts in calvaria: fewer TRAP+ osteoclasts
[3]; OL mice
  in vivo bone formation (calcein/Alizarin): enhanced
[3]; WT mice, 10 mg/kg weekly IP, 2 weeks
  calvarial pitting and porosity / inflammatory bone loss by μCT: significant reduction in pitting and porosity
[4]; 1 μM dose
  inhibition of osteoclast differentiation: significantly more effective
[4]; 1 μM, with ZM241385
  inhibition of osteoclast differentiation in the presence of A2A antagonist: partially reversed
[4]; higher doses
  inhibition of osteoclast differentiation: equally effective
[5]
  Ki: 69.2 nM
[6]
  activation of A2B adenosine receptor (cyclic AMP): 33%
[7]
  mineralizing capacity of osteoblasts (Alizarin Red staining): enhanced
